Laboratory results reported in patent publication US20040126819A1.

Columns and labels:
[1] = biological target: 135 kD GDNF receptor subunit of rat cell lines; test: affinity labeling: 125I-GDNF cross-linked to L6 cells, SDS/PAGE, autoradiography
[2] = biological target: 300 kD GDNF receptor subunit of rat cell lines; test: as above
[3] = biological target: 300 kD GDNF binding protein of E10 chick sympathetic neurons; test: affinity labeling of chick sympathetic neurons, SDS/PAGE autoradiography
[4] = biological target: 70 kD GDNF binding protein of E10 chick sympathetic neurons; test: as above
[5] = biological target: 135 kD GDNF receptor subunit of rat cell lines; test: EDAC cross-linking to RN33B cells, SDS/PAGE
[6] = biological target: 135 kD GDNF receptor subunit of rat cell lines; test: EDAC cross-linking of 125I-GDNF to L6 rat myoblasts
[7] = biological target: 300 kD GDNF receptor subunit of rat cell lines; test: affinity labeling: 125I-GDNF cross-linked to ST15A cells, SDS/PAGE, autoradiography
[8] = biological target: 135 kD GDNF receptor subunit of rat cell lines; test: affinity labeling with the cross-linker EDAC
[9] = biological target: 300 kD GDNF receptor subunit of rat cell lines; test: affinity labeling with the cross-linker EDAC
[10] = biological target: 135 kD GDNF receptor subunit of rat cell lines; test: affinity labeling: 125I-GDNF cross-linked to C6 cells, SDS/PAGE, autoradiography
[11] = biological target: 300 kD GDNF receptor subunit of rat cell lines; test: as above
[12] = biological target: 300 kD GDNF binding protein of E10 chick sympathetic neurons; test: chemical cross-linking to chick sympathetic neurons, SDS-PAGE
[13] = biological target: 70 kD GDNF binding protein of E10 chick sympathetic neurons; test: as above
[14] = biological target: 300 kD GDNF receptor subunit of human cell lines (A875, LAN5); test: affinity labeling: 125I-GDNF cross-linked to LAN5 cells, SDS/PAGE, autoradiography
[15] = biological target: 135 kD GDNF receptor subunit of rat cell lines; test: displacement of 125I-GDNF by increasing cold GDNF on RN33B cells, cross-linking, SDS-PAGE, band of the subunit cut out and counted
[16] = biological target: 300 kD GDNF receptor subunit of rat cell lines; test: as above
[17] = biological target: 135 kD GDNF receptor subunit of rat cell lines; test: affinity labeling: 125I-GDNF cross-linked to RN46A cells, SDS/PAGE, autoradiography
[18] = biological target: 300 kD GDNF receptor subunit of rat cell lines; test: as above
[19] = biological target: 300 kD GDNF receptor subunit of human cell lines (A875, LAN5); test: affinity labeling: 125I-GDNF cross-linked to A875 cells, SDS/PAGE, autoradiography
[20] = biological target: 135 kD GDNF receptor subunit of rat cell lines; test: affinity labeling: 125I-GDNF cross-linked to RN33B cells, SDS/PAGE, autoradiography
[21] = biological target: 300 kD GDNF receptor subunit of rat cell lines; test: as above
[22] = biological target: 300 kD GDNF receptor subunit of rat cell lines; test: DSS cross-linking of 125I-GDNF to L6 rat myoblasts
[23] = biological target: 300 kD GDNF receptor subunit of rat cell lines; test: DSS cross-linking of 125I-GDNF to C6, RN33B and RN46A cells

Measured: binding

B1: recombinant rat GDNF produced in Sf21 insect cells using a baculovirus expression system (ligand, UniProt Q07731 78-211, looked up)
chain: SPDKQAAALPRRERNRQAAAASPENSRGKGRRGQRGKNRGCVLTAIHLNVTDLGLGYETKEELIFRYCSGSCEAAETMYDKILKNLSRSRRLTSDKVGQACCRPVAFDDDLSFLDDSLVYHILRKHSAKRCGCI
modifications: labeled with Na-^125I by the chloramine-T method where used as tracer
binds: [1] | [2] | [3] | [4] | [5] | [6] | [7] | [8] | [9] | [10] | [11] | [12] | [13] | [14] | [15] | [16] | [17] | [18] | [19] | [20] | [21] | [22] | [23]

Results are given in words; binding and its absence hold for the method and conditions named. Binding calls can cover weak binding; strength is not graded here.
